The text below walks through data of patent US20110189205A1.

Sequences of proteins named here, by UniProt entry; tags and fusion partners are left off.
UniProt O35427: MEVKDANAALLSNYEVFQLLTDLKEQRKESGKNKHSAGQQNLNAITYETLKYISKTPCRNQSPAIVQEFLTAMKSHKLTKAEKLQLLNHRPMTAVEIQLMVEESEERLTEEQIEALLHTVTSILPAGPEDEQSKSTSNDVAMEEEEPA

Results are given in words; binding and its absence hold for the method and conditions named. In cells and extracts the contact can be indirect. Some binding calls cover weakened binding; strength is not graded here. Where a sequence is shown, tags or fusion partners need not be part of it.

Test [1] has as its target RCP of NIH3T3 cells (UniProt O35427). The experiment in a line: co-immunoprecipitation.
The target is the same in test [2]. In words: co-immunoprecipitation from NIH3T3 cells (GFP immunoprecipitation, anti-RCP blot).

Regarding LIVVAVFAEKQHLMWYYFLGWGFPLIPACIH (peptide, not shown: large carriers), the binding entry in test [1] and in test [2] was “binds” throughout.
